Data published in PubChem BioAssay AID540256 (National Center for Advancing Translational Sciences (NCATS), 2011).
Several values for one entry are separate records, joined by “and”; a condition that tells them apart may be missing. Equal entries are not always repeated. Out of some 300,000 compounds screened, about 3,700 (1.2%) were called active. Inconclusive results, whose numbers are uncertain, are shown with a selection of clear calls. The call rests on the fitted dose curve; tested in HEK293 cells. Potencies of inconclusive entries are doubtful fits and often do not repeat.

Assay: qHTS for Inhibitors of binding or entry into cells for Lassa Virus; further: nearly all actives have a fitted effect of over 50% in size
Settings: Lassa virus pseudotype entry inhibition, cell reporter; series mostly up to 37.9 µM
Potency means the concentration at half of the fitted maximal effect.

Compound	Potency
NC(=O)CSc1nccn1Cc1ccc(Cl)cc1	inconclusive: 1 µM [inhibitor, single point]
COc1cc(/C=C/c2nnc3c4ccccc4ncn23)cc(OC)c1OC	inconclusive: 12.6 µM [inhibitor, partial curve]
COc1ccc(NC(=O)Cn2c(=O)n(-c3ccccc3)c(=O)c3ccc(C(=O)NCc4ccc5c(c4)OCO5)cc32)cc1	inconclusive: 6.31 µM [inhibitor, partial curve, poor fit]
COc1ccccc1CNc1ccc(C(=O)O)cc1	inconclusive: 6.31 µM [activator, single point]
COc1ccc(C(NC(C)=O)c2cc(Cl)c3cccnc3c2O)cc1OC (stereo not given)	active: 2.82 µM
CCN(CC)Cc1c[nH]c2ccccc12	inactive
CCCn1cnc2cc(NCc3cccc(OC)c3O)ccc21	inactive
CCCCCCCCCCCCCCCCCC(=O)NCC(COP(=O)([O-])OCC[N+](C)(C)C)OCC (stereo not given)	inconclusive: 2.06 µM [inhibitor, partial curve, poor fit]
COC(=O)c1ccc(C(=O)NC2CC(C)(C)Cc3c2cnn3-c2ccc(F)cc2)nc1 (stereo not given)	inconclusive: 3.16 µM [inhibitor, full curve]
CCOc1ccc(NC(=O)CN(C)C(=O)c2cn(-c3ccc(F)cc3)nc2-c2cccc(OC)c2)cc1OCC	inconclusive: 14.1 µM [inhibitor, single point]
Cc1ccnc(SCC(=O)NC2CC2)n1	inactive
CCN(CC)c1nc2c(S(=O)(=O)c3ccc(C)cc3)nnn2c2ccsc12	inactive
CC(=O)Nc1ccccc1C(=O)OCC(=O)c1ccc2c(c1)OCCO2	inconclusive: 1.26 µM [inhibitor, partial curve, poor fit]
Cc1ccc(NC(=O)c2cccc(S(C)(=O)=O)c2)cc1	inconclusive: 5.62 µM [activator, single point]
COc1ccc(NC(=O)CSCc2ccc([N+](=O)[O-])cc2)cc1OC	inconclusive: 12.6 µM [inhibitor, partial curve, poor fit]
CCOC(=O)c1cnc(-n2nc(C)cc2C)nc1NNc1cc(C)nc(-c2ccccc2)n1	inconclusive: 5.62 µM [inhibitor, single point]
COc1ccc(C(c2c(C)n(C)n(-c3ccccc3)c2=O)c2c(C)n(C)n(-c3ccccc3)c2=O)c(OC)c1OC	inactive
CCC1(c2ccccc2)SC(=O)NC1=O (stereo not given)	inactive
CCN(CC(=O)Nc1c(F)cccc1F)C(=O)Cc1csc(-c2ccc(OC)c(OC)c2)n1	inconclusive: 1 µM [inhibitor, single point]
CCN(CC(=O)Nc1ccccc1C(F)(F)F)C(=O)/C=C/c1ccc(Cl)c([N+](=O)[O-])c1	inactive
COc1ccccc1CNC(=O)c1nn(-c2ccc(C)cc2)c(=O)c2c1c1ccccc1n2C	inconclusive: 2.31 µM [inhibitor, partial curve] and inconclusive: 3.55 µM [inhibitor, single point]
Cc1cccc(C)c1OCc1nc2ccccc2c(=O)n1/N=C/c1c[nH]c2ccccc12	active: 2.51 µM
COC(=O)CNC(=O)Cn1cnc2sc(C)c(S(=O)(=O)N3CCN(c4ccccc4OC)CC3)c2c1=O	inactive
Fc1c(CSC(=S)N2CCOCC2)cccc1CSC(=S)N1CCOCC1	inconclusive: 7.08 µM [inhibitor, full curve]

Molecules listed so far that have a thiophene ring, fused or not, in the order listed:
Compound	Potency
CCN(CC)c1nc2c(S(=O)(=O)c3ccc(C)cc3)nnn2c2ccsc12	inactive
COC(=O)CNC(=O)Cn1cnc2sc(C)c(S(=O)(=O)N3CCN(c4ccccc4OC)CC3)c2c1=O	inactive

Next part

Compound	Potency
COc1ccc(OC)c(-c2cc(C(=O)N3CCN(c4ncccn4)CC3)c3ccccc3n2)c1	inconclusive: 25.1 µM [inhibitor, single point]
CCN(C(=O)COC(=O)CSc1ccc([N+](=O)[O-])cc1)C1CCS(=O)(=O)C1 (stereo not given)	inactive
O=C(CCCn1c(SCC(=O)NCC2CCCO2)nc2ccccc2c1=O)NCc1ccccc1 (stereo not given)	inactive
Cc1ccc(NC(=O)c2cc(N3C(=O)C4CC=CCC4C3=O)ccc2N2CCCCC2)cc1 (stereo not given)	inconclusive: 29.1 µM [inhibitor, single point]
COc1ccc(-c2cnc(NCc3ccc(C)cc3)n2C)cc1	inactive
Cc1cccc(NC(=S)NCc2ccc(F)cc2)c1C	inconclusive: 35.5 µM [inhibitor, single point]
C=C(C)c1nc(Oc2ccccc2)nc(Oc2ccccc2)n1	inconclusive: 15.8 µM [inhibitor, single point]
CN(c1ccccc1)S(=O)(=O)c1cccc(NC(=O)Cn2cnc3ccccc3c2=O)c1	inconclusive: 12.6 µM [inhibitor, partial curve, poor fit]
CNc1ccc(/C=C2\CSc3ccccc3C2=O)cc1[N+](=O)[O-]	inconclusive: 0.447 µM [inhibitor, single point]
CCN(CC)C(=O)CSc1ncnc2sc(C)c(C)c12	inconclusive: 20 µM [inhibitor, partial curve, poor fit]
Cc1cccc(OCC(=O)NCc2ccc3c(c2)CCN3C(=O)c2ccccc2)c1	inconclusive: 1.78 µM [inhibitor, partial curve, poor fit]
NC(=O)C1CCN(C(=O)OCc2ccccc2)CC1	inconclusive: 15.8 µM [activator, single point]
Cc1ccc(Sc2ccc(/C=N/O)cc2[N+](=O)[O-])cc1	inconclusive: 10 µM [inhibitor, partial curve, poor fit]
CN1CCc2c(OCC(=O)N3CCC(Cc4ccccc4)CC3)cccc2C1=O	inconclusive: 2.82 µM [inhibitor, full curve, poor fit]
COc1ccc(C(=O)NCC(=O)O)cc1	inconclusive: 29.1 µM [activator, partial curve, poor fit]
CC1CCCCC1NCC(=O)Nc1ccccc1-c1ccccc1 (stereo not given)	inactive
CC(C)CNC(=O)Cn1nc(C(F)(F)F)c2c1CCCC2	inactive
CCOC(=O)c1ccc(NC(=O)CCc2nc(-c3ccc(Cl)cc3)no2)cc1	inconclusive: 18.3 µM [inhibitor, single point]
O=C(O)c1ccc(CN2CCOCC2)o1	inconclusive: 3.55 µM [inhibitor, partial curve, poor fit]
COc1cccc(-n2cnc3sc(C)c(C)c3c2=O)c1	inactive
CC1CCCN(S(=O)(=O)c2cccc(C(=O)NCC3CCCO3)c2)C1 (stereo not given)	inconclusive: 3.98 µM [inhibitor, single point]
COC(=O)COc1ccc(Oc2nc(NC(C)(C)C)nc(N3CCOCC3)n2)nn1	inactive
CN(c1cc2c(c3c1ccn3C)C1CCC2O1)C(C)(C)C (stereo not given)	active: 3.53 µM
CC1(C)CC[C@]2(C(=O)n3ccnc3)CC[C@]3(C)[C@H](C(=O)C=C4[C@@]5(C)C=C(C#N)C(=O)C(C)(C)[C@@H]5CC[C@]43C)[C@@H]2C1	active: 2.51 µM

Compound	Potency
CCCC(=O)NC(Nc1ccc(S(=O)(=O)Nc2cc(C)on2)cc1)(C(F)(F)F)C(F)(F)F	inconclusive: 10 µM [inhibitor, partial curve, poor fit]
CC(=O)c1ccc(N2CCN(CC(=O)N(CC(C)C)c3c(N)n(CC(C)C)c(=O)[nH]c3=O)CC2)cc1	inconclusive: 1 µM [inhibitor, single point]
COc1ccccc1Cn1[nH]nnc1=S	inactive
FC(F)(F)c1ccccc1CN1CCC(Cc2ccccc2)CC1	inactive
CC(C)(C)OC(=O)N/N=C/c1cc(N=Nc2ccccc2)ccc1O	inconclusive: 10 µM [inhibitor, partial curve]
O=C(Nc1nnc(S(=O)(=O)N2CCCC2)s1)c1ccccc1Cl	inconclusive: 35.5 µM [inhibitor, single point]
CCn1ccc2cc(S(=O)(=O)N3CCC(C(=O)NCc4ccc(OC(C)C)cc4)CC3)ccc21	inactive
O=C(CCCc1nc2ccccc2s1)N1CCN(S(=O)(=O)c2cccs2)CC1	inconclusive: 35.5 µM [inhibitor, single point]
O=C(O)CSc1ccnc2cc(Cl)ccc12	inactive
CCn1cc(Br)c(C(=O)Nc2ccccc2C(=O)OC)n1	inconclusive: 8.91 µM [inhibitor, partial curve, poor fit]
O=C(NCC1COCCO1)c1cc(COc2c(F)cccc2F)on1 (stereo not given)	inactive
Cc1ccc(C(=O)NCCCNC(=O)c2ccccc2C)cn1	inactive
O=C(CCC(=O)c1cccs1)NCc1cccc(Cl)c1	inconclusive: 0.501 µM [activator, single point]
CC(C)Cc1nnc(NC(=O)Nc2ccccc2)s1	inconclusive: 20 µM [inhibitor, single point]
Cc1ccc(C(C)C)c(OCCSc2nc(-c3cccs3)nc3cc(=O)[nH]n23)c1	inconclusive: 6.31 µM [activator, single point]
CC(C)S(=O)(=O)c1csc(NC(=O)Nc2ccc(Cl)cc2)c1Cl	inconclusive: 7.08 µM [inhibitor, partial curve, poor fit]
CCOc1ccccc1NC(=O)NC1(C(=O)N2CCN3CCCC3C2)CCCCC1 (stereo not given)	inactive
Cc1c(NC(=O)c2cc3ccccc3o2)cccc1-c1nc2ccccc2o1	inactive
O=C1C=C(c2ccccc2)CO1	inactive
Cc1ccc(S(=O)(=O)CCC(=O)Nc2ccc3c(c2)OCO3)cc1	inconclusive: 1.26 µM [activator, partial curve, poor fit]
CCc1[nH]nc(C(=O)N2CCCC(Nc3ccc(C(C)C)cc3)C2)c1C (stereo not given)	inconclusive: 6.31 µM [inhibitor, partial curve]
COc1cccc(CN2C(=O)Nc3ccccc3C(=O)N2C(C)(C)C)c1	inconclusive: 35.5 µM [activator, single point]
